Results from US20220265769A1, “COMPOSITIONS AND METHODS OF TREATMENT FOR BREAST CANCER INVOLVING A NOVEL CAPER?-MLL1 COMPLEX” (Geisinger Health, priority 2019, published 2022).
Results are given in words; binding and its absence hold for the method and conditions named. In cells and extracts the contact can be indirect. Some entries that bind do so weakly or less than the wild type. Where a sequence is shown, tags or fusion partners need not be part of it.

Sequences of proteins named here, by UniProt entry; tags and fusion partners are left off.
UniProt Q15291: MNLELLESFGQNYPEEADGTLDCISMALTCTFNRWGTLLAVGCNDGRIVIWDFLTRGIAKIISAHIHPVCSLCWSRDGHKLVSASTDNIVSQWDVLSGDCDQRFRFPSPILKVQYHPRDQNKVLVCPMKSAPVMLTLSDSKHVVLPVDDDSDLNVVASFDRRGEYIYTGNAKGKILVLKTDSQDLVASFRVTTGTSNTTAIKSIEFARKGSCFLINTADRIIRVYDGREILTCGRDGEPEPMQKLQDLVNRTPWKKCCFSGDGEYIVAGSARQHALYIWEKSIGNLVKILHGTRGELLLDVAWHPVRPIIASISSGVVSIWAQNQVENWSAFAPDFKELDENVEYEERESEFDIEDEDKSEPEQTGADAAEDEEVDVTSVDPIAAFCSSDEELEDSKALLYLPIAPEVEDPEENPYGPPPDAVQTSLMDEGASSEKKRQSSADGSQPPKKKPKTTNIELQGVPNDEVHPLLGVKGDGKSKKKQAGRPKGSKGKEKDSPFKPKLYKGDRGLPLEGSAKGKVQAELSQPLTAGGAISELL
UniProt Q03164: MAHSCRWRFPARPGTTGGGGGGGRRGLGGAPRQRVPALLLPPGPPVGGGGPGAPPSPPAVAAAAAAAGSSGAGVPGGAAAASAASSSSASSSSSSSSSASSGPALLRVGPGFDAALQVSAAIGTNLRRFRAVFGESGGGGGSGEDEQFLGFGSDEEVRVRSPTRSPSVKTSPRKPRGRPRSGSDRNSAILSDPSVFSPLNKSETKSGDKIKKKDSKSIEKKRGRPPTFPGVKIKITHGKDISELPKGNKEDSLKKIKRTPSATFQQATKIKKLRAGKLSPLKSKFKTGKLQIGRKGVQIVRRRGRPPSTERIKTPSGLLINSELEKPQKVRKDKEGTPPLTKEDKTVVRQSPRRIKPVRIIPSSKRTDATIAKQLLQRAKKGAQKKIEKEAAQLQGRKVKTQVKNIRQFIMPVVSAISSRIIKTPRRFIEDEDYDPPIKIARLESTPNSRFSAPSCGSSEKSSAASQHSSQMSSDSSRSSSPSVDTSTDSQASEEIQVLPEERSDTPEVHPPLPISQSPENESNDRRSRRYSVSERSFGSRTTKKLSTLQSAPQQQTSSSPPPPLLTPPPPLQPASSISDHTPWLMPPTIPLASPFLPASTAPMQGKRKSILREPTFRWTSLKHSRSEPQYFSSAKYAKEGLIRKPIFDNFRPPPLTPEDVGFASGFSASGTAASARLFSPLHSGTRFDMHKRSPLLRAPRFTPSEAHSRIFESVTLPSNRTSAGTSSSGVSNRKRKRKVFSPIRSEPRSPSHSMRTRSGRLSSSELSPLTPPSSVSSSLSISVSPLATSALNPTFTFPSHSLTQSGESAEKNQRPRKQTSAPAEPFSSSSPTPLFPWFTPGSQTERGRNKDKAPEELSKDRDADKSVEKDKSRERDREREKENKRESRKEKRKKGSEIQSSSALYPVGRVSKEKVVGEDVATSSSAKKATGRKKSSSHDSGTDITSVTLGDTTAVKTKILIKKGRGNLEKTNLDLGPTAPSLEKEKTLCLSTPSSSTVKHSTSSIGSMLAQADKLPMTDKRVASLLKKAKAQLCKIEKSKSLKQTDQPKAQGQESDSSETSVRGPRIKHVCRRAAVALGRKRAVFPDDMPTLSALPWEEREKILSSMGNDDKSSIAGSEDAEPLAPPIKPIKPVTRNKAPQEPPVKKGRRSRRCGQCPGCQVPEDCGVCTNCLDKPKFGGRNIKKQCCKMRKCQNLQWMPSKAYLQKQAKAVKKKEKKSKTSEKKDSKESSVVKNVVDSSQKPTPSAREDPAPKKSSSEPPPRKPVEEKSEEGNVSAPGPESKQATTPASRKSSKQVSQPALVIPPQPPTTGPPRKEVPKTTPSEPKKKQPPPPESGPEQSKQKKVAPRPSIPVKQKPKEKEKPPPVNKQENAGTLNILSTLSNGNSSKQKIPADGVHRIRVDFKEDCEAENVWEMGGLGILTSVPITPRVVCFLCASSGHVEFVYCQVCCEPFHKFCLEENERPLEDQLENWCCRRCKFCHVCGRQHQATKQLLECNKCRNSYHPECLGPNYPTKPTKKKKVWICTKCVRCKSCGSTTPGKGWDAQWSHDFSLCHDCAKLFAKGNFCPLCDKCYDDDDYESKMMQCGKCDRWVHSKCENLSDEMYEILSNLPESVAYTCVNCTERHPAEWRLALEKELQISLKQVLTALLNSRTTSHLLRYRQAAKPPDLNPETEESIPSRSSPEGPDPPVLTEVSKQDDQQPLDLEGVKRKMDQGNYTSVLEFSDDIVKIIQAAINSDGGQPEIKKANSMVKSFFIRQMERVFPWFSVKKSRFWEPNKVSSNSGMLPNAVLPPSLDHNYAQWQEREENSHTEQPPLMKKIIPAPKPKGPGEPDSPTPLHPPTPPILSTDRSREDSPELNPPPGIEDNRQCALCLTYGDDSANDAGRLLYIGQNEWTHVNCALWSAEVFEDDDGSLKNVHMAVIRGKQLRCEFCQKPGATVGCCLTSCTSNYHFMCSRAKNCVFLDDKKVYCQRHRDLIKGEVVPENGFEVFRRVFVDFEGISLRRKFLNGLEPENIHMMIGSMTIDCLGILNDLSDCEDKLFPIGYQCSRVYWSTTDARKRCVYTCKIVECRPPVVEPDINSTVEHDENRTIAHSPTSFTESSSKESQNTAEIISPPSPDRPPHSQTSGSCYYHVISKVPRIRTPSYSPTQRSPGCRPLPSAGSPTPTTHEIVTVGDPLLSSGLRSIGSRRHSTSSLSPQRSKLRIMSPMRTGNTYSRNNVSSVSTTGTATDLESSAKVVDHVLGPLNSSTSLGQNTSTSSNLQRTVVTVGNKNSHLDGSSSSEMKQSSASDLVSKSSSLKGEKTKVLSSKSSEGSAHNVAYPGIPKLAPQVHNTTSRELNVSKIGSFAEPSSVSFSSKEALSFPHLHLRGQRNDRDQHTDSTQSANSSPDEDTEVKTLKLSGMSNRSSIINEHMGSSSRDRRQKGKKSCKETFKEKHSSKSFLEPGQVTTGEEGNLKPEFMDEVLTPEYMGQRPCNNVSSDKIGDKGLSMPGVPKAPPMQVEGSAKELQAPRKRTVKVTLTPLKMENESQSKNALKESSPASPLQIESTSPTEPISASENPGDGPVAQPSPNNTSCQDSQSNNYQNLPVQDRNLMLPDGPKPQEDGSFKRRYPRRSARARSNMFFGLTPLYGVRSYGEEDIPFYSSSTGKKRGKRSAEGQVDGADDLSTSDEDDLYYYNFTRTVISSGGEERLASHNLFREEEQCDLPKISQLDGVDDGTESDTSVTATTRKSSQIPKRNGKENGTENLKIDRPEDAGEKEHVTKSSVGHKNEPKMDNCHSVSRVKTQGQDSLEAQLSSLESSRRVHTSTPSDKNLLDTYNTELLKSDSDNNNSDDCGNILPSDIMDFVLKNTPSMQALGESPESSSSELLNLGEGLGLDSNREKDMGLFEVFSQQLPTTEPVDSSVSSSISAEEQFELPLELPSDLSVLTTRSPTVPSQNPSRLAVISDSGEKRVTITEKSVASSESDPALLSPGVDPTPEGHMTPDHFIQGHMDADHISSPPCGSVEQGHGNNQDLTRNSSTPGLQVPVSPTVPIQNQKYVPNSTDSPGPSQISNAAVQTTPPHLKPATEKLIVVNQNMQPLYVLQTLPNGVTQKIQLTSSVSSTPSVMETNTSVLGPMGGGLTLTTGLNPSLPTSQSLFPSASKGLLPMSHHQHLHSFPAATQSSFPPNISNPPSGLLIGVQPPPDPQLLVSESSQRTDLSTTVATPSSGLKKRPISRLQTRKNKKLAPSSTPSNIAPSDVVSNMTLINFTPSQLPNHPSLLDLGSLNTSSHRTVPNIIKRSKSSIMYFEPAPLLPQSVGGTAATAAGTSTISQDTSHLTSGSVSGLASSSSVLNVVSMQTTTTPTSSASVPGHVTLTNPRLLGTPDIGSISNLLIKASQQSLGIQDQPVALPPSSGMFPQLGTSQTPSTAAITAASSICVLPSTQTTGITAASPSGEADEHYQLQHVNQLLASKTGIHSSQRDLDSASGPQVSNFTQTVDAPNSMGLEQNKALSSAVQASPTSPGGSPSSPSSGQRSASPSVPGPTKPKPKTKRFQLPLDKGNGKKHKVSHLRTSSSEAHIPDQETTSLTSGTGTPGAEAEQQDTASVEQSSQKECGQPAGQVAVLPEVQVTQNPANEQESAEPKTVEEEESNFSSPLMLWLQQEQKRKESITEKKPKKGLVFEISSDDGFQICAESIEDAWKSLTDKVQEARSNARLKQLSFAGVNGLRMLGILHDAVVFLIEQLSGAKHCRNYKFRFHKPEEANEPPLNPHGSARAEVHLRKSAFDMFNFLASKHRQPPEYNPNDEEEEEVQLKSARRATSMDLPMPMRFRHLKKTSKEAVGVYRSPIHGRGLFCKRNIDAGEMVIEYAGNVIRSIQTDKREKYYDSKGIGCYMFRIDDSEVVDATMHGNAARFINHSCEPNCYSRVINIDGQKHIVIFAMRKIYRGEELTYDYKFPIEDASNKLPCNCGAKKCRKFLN
UniProt Q9UBL3: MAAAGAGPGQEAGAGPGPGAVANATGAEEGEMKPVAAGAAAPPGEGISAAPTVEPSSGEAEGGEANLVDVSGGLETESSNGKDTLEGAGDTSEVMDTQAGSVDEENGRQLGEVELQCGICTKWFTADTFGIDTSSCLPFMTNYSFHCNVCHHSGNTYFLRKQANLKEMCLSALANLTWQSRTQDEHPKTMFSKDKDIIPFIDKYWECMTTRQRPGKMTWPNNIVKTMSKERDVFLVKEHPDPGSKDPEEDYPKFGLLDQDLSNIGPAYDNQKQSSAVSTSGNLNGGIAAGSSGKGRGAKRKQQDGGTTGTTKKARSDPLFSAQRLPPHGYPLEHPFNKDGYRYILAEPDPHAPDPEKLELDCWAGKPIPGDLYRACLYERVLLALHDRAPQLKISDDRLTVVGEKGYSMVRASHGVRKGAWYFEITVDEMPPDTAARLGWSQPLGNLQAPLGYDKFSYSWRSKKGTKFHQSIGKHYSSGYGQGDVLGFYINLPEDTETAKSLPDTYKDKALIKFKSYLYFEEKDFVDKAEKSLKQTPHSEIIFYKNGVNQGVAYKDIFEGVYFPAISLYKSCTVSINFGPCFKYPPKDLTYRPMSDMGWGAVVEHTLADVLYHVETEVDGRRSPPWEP

Columns and labels:
RbBP5 (human) [1] = target: RbBP5 (human) (UniProt Q15291); assay: anti-myc pulldown, HEK293 lysate after overexpression of domains
[2] = target: Mixed Lineage Leukemia 1 (MLL1) (human) (UniProt Q03164); assay: as above
ASH2L (human) [3] = target: ASH2L (human) (UniProt Q9UBL3); assay: as above
RbBP5 (human) [4] = target: RbBP5 (human) (UniProt Q15291); assay: anti-myc pulldown of isolated domains in heterologous cells
[5] = target: Mixed Lineage Leukemia 1 (MLL1) (human) (UniProt Q03164); assay: as above
ASH2L (human) [6] = target: ASH2L (human) (UniProt Q9UBL3); assay: as above
RbBP5 (human) [7] = target: RbBP5 (human) (UniProt Q15291); assay: GST pulldown with purified domains and T47D lysate
[8] = target: Mixed Lineage Leukemia 1 (MLL1) (human) (UniProt Q03164); assay: GST pulldown with purified domains and T47D lysate
ASH2L (human) [9] = target: ASH2L (human) (UniProt Q9UBL3); assay: GST pulldown with purified domains and T47D lysate
RbBP5 (human) [10] = target: RbBP5 (human) (UniProt Q15291); assay: GST pulldown with purified CAPERα domains and T47D nuclear lysate
[11] = target: Mixed Lineage Leukemia 1 (MLL1) (human) (UniProt Q03164); assay: as above
ASH2L (human) [12] = target: ASH2L (human) (UniProt Q9UBL3); assay: as above

Measured: binding

B1: myc-tagged CAPERα RRM3 domain (protein, UniProt Q14498 445-508, looked up, not shown: small tags and cut ends)
chain: EIKDDVIEECNKHGGVIHIYVDKNSAQGNVYVKCPSIAAAIAAVNALHGRWFAGKMITAAYVPL
binds: RbBP5 (human) [1] | [2] | ASH2L (human) [3] | RbBP5 (human) [4] | [5] | ASH2L (human) [6]

B2: purified GST-fusion RRM3 domain of CAPERα (protein, UniProt Q14498 445-508, looked up, not shown: a dimerising Fc or GST)
chain: B1 chain
binds: RbBP5 (human) [7] | [8] | ASH2L (human) [9] | RbBP5 (human) [10] | [11] | ASH2L (human) [12]
